PubChem BioAssay AID1224826 | NIAID, 2016

Aim: 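Genes that change LPS-induced Tnf promoter activity in mouse macrophages when knocked down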 (primary screen)
Cell system: RAW264.7 G9 macrophages from mouse bearing reporters for p65 (GFP) and the Tnf promoter (mCherry)
Reagent: siRNA pool against mouse genes, 100 nM
Duration: 16 h of LPS stimulation, after 2 days of siRNA transfection
Treatment: bacterial lipopolysaccharide (Salmonella minnesota R595), 10 ng/ml
Detection: 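Nuclear mCherry signal of the Tnf promoter reporter measured by imaging after background removal, scaled to each plate median and turned into robust z-scores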
Reading the numbers: Tnf reporter robust z-score: higher = stronger Tnf promoter reporter signal after LPS
Call rule: 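a well counts as active at a score of -1.3 or below (Tlr4 knock-down control median) or above 3 (raised signal); controls and wells holding fewer than 50 cells are excluded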
Calls: active = Tnf reporter clearly lowered or raised; inactive = no clear change in Tnf reporter
In all, the deposit lists about 17,000 reagents; this is a part drawn at random. In the full data, about 1,110 (6.6%) were called active. 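Active means lowered or raised reporter signal; replicate intensities are raw and not normalised per plate.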 Entries without a mark were called inactive. Not all columns of the deposit are shown.

Psmb1 [SID315468738] | fewer than 50 cells in well = fewer than 50 cells per well; well left out of calls
Pccb [SID315472708] | Tnf reporter robust z-score = -0.12; fewer than 50 cells in well = enough cells in well
Tinf2 [SID315470680] | Tnf reporter robust z-score = 0.23; fewer than 50 cells in well = enough cells in well
Crygs [SID315466152] | Tnf reporter robust z-score = 0.65; fewer than 50 cells in well = enough cells in well
Rhov [SID315478636] | Tnf reporter robust z-score = 1.04; fewer than 50 cells in well = enough cells in well
Tdp2 [SID315471393] | Tnf reporter robust z-score = -1.12; fewer than 50 cells in well = enough cells in well
Fbxw16 [SID315481224] | Tnf reporter robust z-score = -0.89; fewer than 50 cells in well = enough cells in well
Mdfi [SID315467879] | fewer than 50 cells in well = fewer than 50 cells per well; well left out of calls
Aldoart1 [SID315481708] | Tnf reporter robust z-score = -0.33; fewer than 50 cells in well = enough cells in well
Slit3 [SID315469324] | Tnf reporter robust z-score = -0.8; fewer than 50 cells in well = enough cells in well
Zbtb40 [SID315478835] | Tnf reporter robust z-score = 0.14; fewer than 50 cells in well = enough cells in well
Golga4 [SID315471185] | Tnf reporter robust z-score = -0.03; fewer than 50 cells in well = enough cells in well
Rgs17 [SID315471599] | Tnf reporter robust z-score = -0.24; fewer than 50 cells in well = enough cells in well
Zfp696 [SID315482003] | Tnf reporter robust z-score = 2.24; fewer than 50 cells in well = enough cells in well
Sun2 [SID315478282] | Tnf reporter robust z-score = -1.24; fewer than 50 cells in well = enough cells in well
Smarca2 [SID315472872] | Tnf reporter robust z-score = 0.74; fewer than 50 cells in well = enough cells in well
Gtpbp3 [SID315474025] | Tnf reporter robust z-score = 0.68; fewer than 50 cells in well = enough cells in well
Sema4b [SID315469178] | Tnf reporter robust z-score = 1.06; fewer than 50 cells in well = enough cells in well
Ajuba [SID315467552] | Tnf reporter robust z-score = 0.75; fewer than 50 cells in well = enough cells in well
Prrt1 [SID315480729] | fewer than 50 cells in well = fewer than 50 cells per well; well left out of calls
Strm [SID315469515] | Tnf reporter robust z-score = 1.37; fewer than 50 cells in well = enough cells in well

2 consecutive reagents from above, quoted:
Sun2 [SID315478282] | Tnf reporter robust z-score = -1.24; fewer than 50 cells in well = enough cells in well
Smarca2 [SID315472872] | Tnf reporter robust z-score = 0.74; fewer than 50 cells in well = enough cells in well
